# In the supplement of paper PMC12823440, “Inhibitors supercharge kinase turnover through native proteolytic circuits” (Nature, 2025):
# Chains of the proteins cited; added tags and fusions are not shown.
# UniProt P07949, whole entry M918T, looked up: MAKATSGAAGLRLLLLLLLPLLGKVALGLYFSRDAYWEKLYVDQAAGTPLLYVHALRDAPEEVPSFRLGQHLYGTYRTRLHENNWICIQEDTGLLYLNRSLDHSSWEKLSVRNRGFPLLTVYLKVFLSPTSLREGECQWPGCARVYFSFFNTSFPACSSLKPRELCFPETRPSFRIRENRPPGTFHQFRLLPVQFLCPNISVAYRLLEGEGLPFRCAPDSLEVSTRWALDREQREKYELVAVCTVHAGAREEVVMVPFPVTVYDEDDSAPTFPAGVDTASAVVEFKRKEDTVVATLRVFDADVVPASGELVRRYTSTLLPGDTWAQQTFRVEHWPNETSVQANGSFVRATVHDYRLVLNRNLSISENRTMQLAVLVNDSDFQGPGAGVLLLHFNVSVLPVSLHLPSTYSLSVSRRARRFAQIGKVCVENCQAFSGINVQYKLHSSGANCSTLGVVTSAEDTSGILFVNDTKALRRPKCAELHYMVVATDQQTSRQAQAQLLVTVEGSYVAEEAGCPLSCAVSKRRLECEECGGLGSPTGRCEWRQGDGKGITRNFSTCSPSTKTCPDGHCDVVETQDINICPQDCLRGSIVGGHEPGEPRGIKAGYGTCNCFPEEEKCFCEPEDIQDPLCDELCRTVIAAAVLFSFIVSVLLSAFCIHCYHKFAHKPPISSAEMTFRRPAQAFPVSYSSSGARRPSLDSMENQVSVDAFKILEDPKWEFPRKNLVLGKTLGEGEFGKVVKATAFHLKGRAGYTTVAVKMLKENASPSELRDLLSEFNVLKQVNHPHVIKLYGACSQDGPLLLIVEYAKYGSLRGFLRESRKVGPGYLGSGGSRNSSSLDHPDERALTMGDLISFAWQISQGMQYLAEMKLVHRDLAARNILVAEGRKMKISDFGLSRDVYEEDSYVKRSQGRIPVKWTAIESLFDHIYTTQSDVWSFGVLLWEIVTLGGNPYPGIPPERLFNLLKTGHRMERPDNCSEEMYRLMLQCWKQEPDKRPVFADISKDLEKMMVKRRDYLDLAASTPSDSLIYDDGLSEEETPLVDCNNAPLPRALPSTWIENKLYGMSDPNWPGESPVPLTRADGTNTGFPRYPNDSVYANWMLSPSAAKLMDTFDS
# Structures can show the parent of a compound that is named as a salt. The list shows a part of the results. Hit calls seldom repeat between salt and free forms of one compound.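 Kinases were expressed as nanoluciferase fusions in K562 cells and luminescence was read every 4 h between 2 and 18 h as percent of control, DMSO set to 100% and a positive control to 0%. A time point counts as decreased when the signal drops significantly (2 sigma). The hit call is the authors' own, does not follow from the count of time points alone, and its rule is not shown.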
# Target: RET_M918T (clone: RET_mut) (UniProt P07949)
# Experiment: number of time points (of 5) at which kinase-Nluc abundance scored as decreased, DMSO-normalised (count); higher = more persistent destabilization
# Conditions: K562; 2-18 h
row,Structure (SMILES),number of time points
1,COc1ccc(Cn2cc(C(=O)N=Nc3c(O)[nH]c4c(C)cccc34)nn2)cc1 [MARK4 inhibitor 1] (10 µM),0
2,COc1cc([N+](=O)[O-])ccc1S(=O)(=O)N1C[C@@H](CN2CCN(c3ccccn3)CC2)[C@H](c2cccc(F)c2)C1 (relative stereo) (10 µM),0
3,Cc1cc(Nc2nc(N[C@@H](C)c3ccc(F)cc3)c(C#N)cc2F)n[nH]1 (10 µM),0
4,Cc1ccc(S(=O)(=O)/C=C/C#N)cc1 (10 µM),0
5,Cc1c(CN2CCN(S(C)(=O)=O)CC2)sc2c(N3CCOCC3)nc(-c3cnc(N)nc3)nc12 (2.5 µM),0
6,COc1ccc(-c2ccc3c(N4CCOC[C@@H]4C)nc(N4CCOC[C@@H]4C)nc3n2)cc1CO (2.5 µM),4
7,CCN(CC)S(=O)(=O)c1ccc(OC)c(N2CCN(C(=O)c3ccc(F)cc3C(F)(F)F)CC2)c1 (10 µM),0
8,CC1CN(C(=O)Nc2ccc(Cl)c(Cl)c2)C(=Nc2ccc(F)cc2)S1 (centres undefined) (10 µM),0
9,COCCO[C@@H]1[C@H](O)[C@@H](CO)O[C@H]1n1cnc2c(=O)[nH]c(N)nc21 [2′-O-(2-Methoxyethyl)guanosine] (10 µM),0
10,COc1cc(F)c(F)c(Nc2ccc(I)cc2F)c1NS(=O)(=O)C1(C[C@H](O)CO)CC1 [Refametinib] (10 µM),0
11,CC(C)=CC[C@H](O)C1=CC(=O)c2c(O)ccc(O)c2C1=O [(-)-Alkannin] (2.5 µM),0
12,C[C@@]1(O)CCC[C@H]1n1c(=O)c(C(F)F)cc2cnc(NC3CCN(S(C)(=O)=O)CC3)nc21 (2.5 µM),3
13,CS(=O)(=O)c1ccc(-c2noc(C(F)(F)F)c2-c2ccccc2)cc1 (10 µM),0
14,COc1ccc2[nH]cc(/C=C3\C(=O)Nc4ccc(NC(=O)CCN5CCCCC5)cc43)c2c1 (2.5 µM),0
15,O=C(Nc1ccc(F)cc1F)[C@H](NC(=S)Nc1cc(C(F)(F)F)cc(C(F)(F)F)c1)c1ccccc1 (2.5 µM),0
16,CC(C)CN[C@H]1CS(=O)(=O)C[C@@H]1S(=O)(=O)c1ccc(Cl)cc1 (10 µM),0
17,COc1ccc(C2CC(c3ccccc3)=NN2c2ccc(S(N)(=O)=O)cc2)cc1 (centres undefined) (10 µM),0
18,CC/C=C\C/C=C\C/C=C\CCCCCCCC(=O)O [α-Linolenic acid] (10 µM),0
19,O=C(Nc1nc2ccccc2[nH]1)c1cccc(-n2cccc2)c1 (10 µM),0
20,COc1ncc(-c2nc(N3CCOCC3)nc3c(CN4CCC(C(C)(C)O)CC4)cc(F)cc23)cc1NS(C)(=O)=O [Linperlisib] (10 µM),0

row,Structure (SMILES),number of time points
1,COc1ccc([C@H]2c3[nH]c4ccc(Cl)cc4c3CCN2C(=O)Oc2ccc(Cl)cc2)cc1 (2.5 µM),0
2,COc1c(NC(=O)C(=O)c2ccc(OCCN3CCOCC3)c3ccccc23)cc(C(C)(C)C)cc1NS(C)(=O)=O (2.5 µM),0
3,COc1ccc([C@@H]2CC(=O)c3c(O)cc(O)cc3O2)cc1O [Hesperetin] (10 µM),0
4,N#Cc1cccc(-c2c[nH]c3ncnc(N4CCOCC4)c23)c1 (10 µM),0
5,C/C(=C1/C(=O)Nc2ccc(NC(N)=O)cc21)c1ccc[nH]1 (10 µM),0
6,Nc1ncnc2c1c(-c1ccc(Oc3ccccc3)cc1)nn2C1CCNCC1 [N-piperidine Ibrutinib (hydrochloride)] (10 µM),0
7,N#Cc1ccc2ncnc(NC3CCC(N4CCOCC4)CC3)c2c1 (centres undefined) (10 µM),0
8,CC(=O)c1c(C)c2cnc(Nc3ccc(N4CCN(CCCCNC(=O)COc5cccc6c5C(=O)N(C5CCC(=O)NC5=O)C6=O)CC4)cn3)nc2n(C2CCCC2)c1=O (centres undefined) (10 µM),0
9,CC(C)=CC(=O)CCC(=O)N1CCN(Cc2cc3nc(-c4cccc5[nH]ncc45)nc(N4CCOCC4)c3s2)CC1 (10 µM),0
10,Cc1ccc(S(=O)(=O)Nc2ccccc2C=Nc2ccccc2NS(=O)(=O)c2ccc(C)cc2)cc1 (10 µM),0
11,NCCN1CCN(C/C=C/C(=O)N2CCC[C@@H](n3nc(-c4ccc(Oc5ccccc5)cc4)c4c(N)ncnc43)C2)CC1 [Ibrutinib-MPEA] (10 µM),0
12,O=C(CNC(=O)c1ccc(-c2ccccc2)cc1)NC1CCCc2ccccc21 (centres undefined) [TAO Kinase inhibitor 1] (10 µM),0
13,CC(C)CN(CC(=O)N1CCN(CC(OCc2ccc3ccccc3c2)c2ccc(Cl)cc2Cl)CC1)CC(C)C (centres undefined) [LYN-1604 (dihydrochloride)] (2.5 µM),0
14,CO[C@H]1C[C@@H]2CC[C@@H](C)[C@@](O)(O2)C(=O)C(=O)N2CCCC[C@H]2C(=O)O[C@H]([C@H](C)C[C@@H]2CC[C@@H](O)[C@H](OC)C2)CC(=O)[C@H](C)/C=C(\C)[C@@H](O)[C@@H](OC)C(=O)[C@H](C)C[C@H](C)/C=C/C=C/C=C/1C [Rapamycin] (10 µM),0
15,Cc1ccc(Nc2cc(-c3cccc(N4C(=O)c5ccccc5C4=O)c3)ncn2)cc1NS(C)(=O)=O (10 µM),0
16,Nc1cc(Nc2ccc(S(N)(=O)=O)cc2)ncn1 (10 µM),0
17,CCOc1cc(C(=O)N2CCC(N3CCN(C)CC3)CC2)ccc1Nc1ncc2c(n1)N(C1CCCC1)c1ccccc1C(=O)N2C (10 µM),0
18,COCCOc1ccc(-c2cn(-c3ccccc3)c3nc[nH]c(=O)c23)cc1 (10 µM),0
19,Cc1cc(O)c(C(C)C)cc1N=O [Poloxime] (10 µM),0

# Reformatted with tabs: part of the list above
row	Structure (SMILES)	number of time points
15	Cc1ccc(Nc2cc(-c3cccc(N4C(=O)c5ccccc5C4=O)c3)ncn2)cc1NS(C)(=O)=O (10 µM)	0
16	Nc1cc(Nc2ccc(S(N)(=O)=O)cc2)ncn1 (10 µM)	0
